PubChem BioAssay AID1259254, NCATS – 2017
Purpose: 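Gene knock-downs that lead to re-replication, shown by excess G2 DNA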 (primary screen). System: human HCT116 colorectal cancer cells. Knock-down reagent: single siRNA against human genes. Time to read-out: 3 days. Read-out: 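Nuclei stained with Hoechst and imaged; cell-cycle phase assigned by DNA content; G2 share scaled per plate, non-targeting siRNA 0%, GMNN siRNA 100%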. Reading the numbers: G2 robust z-score: higher = more G2 cells, more excess DNA replication. Hit rule: 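Active siRNAs have a G2 robust z of 5 or more median absolute deviations over the median, which in these data means about 38% or higher of GMNN control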.
This is an unselected part of about 59,000 reagents. Over the whole deposit, about 1,550 (2.6%) are marked active. 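G2 share is only a proxy for re-replication; each gene was hit by three separate siRNAs, and active genes were retested.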 The numbers tell different reagents against one gene apart. Not all columns of the deposit are shown. Reagent sequences are not shown. Not stated in the record: the amount of reagent.

gene knocked down | siRNA no. | G2 robust z-score | activity call
OR5F1 (olfactory receptor family 5 subfamily F member 1) | 1 | 4.37 | inactive
OR5F1 (olfactory receptor family 5 subfamily F member 1) | 2 | -0.56 | inactive
OR5F1 (olfactory receptor family 5 subfamily F member 1) | 3 | -0.206 | inactive
CYBRD1 (cytochrome b reductase 1) | 1 | -0.0633 | inactive
CYBRD1 (cytochrome b reductase 1) | 2 | -0.782 | inactive
CYBRD1 (cytochrome b reductase 1) | 3 | 0.0326 | inactive
RBMS1 (RNA binding motif single stranded interacting protein 1) | 1 | 0.2 | inactive
RBMS1 (RNA binding motif single stranded interacting protein 1) | 2 | -0.0795 | inactive
RBMS1 (RNA binding motif single stranded interacting protein 1) | 3 | 2.51 | inactive
THEM6 (thioesterase superfamily member 6) | 1 | 5.24 | active
THEM6 (thioesterase superfamily member 6) | 2 | -1.72 | inactive
THEM6 (thioesterase superfamily member 6) | 3 | 1.75 | inactive
CCL28 (C-C motif chemokine ligand 28) | 1 | -0.787 | inactive
CCL28 (C-C motif chemokine ligand 28) | 2 | -1.03 | inactive
CCL28 (C-C motif chemokine ligand 28) | 3 | 0.156 | inactive
RALY (RALY heterogeneous nuclear ribonucleoprotein) | 1 | 0.649 | inactive
RALY (RALY heterogeneous nuclear ribonucleoprotein) | 2 | -0.505 | inactive
RALY (RALY heterogeneous nuclear ribonucleoprotein) | 3 | -0.763 | inactive
SLC9A4 | 1 | -0.686 | inactive
SLC9A4 | 2 | 2.26 | inactive
SLC9A4 | 3 | -0.848 | inactive
S1PR5 (sphingosine-1-phosphate receptor 5) | 1 | -0.0299 | inactive
S1PR5 (sphingosine-1-phosphate receptor 5) | 2 | -0.724 | inactive
S1PR5 (sphingosine-1-phosphate receptor 5) | 3 | -0.218 | inactive

Reformatted: results already given
{"gene knocked down": "RALY (RALY heterogeneous nuclear ribonucleoprotein)", "siRNA no.": 3, "G2 robust z-score": -0.763, "activity call": "inactive"}
{"gene knocked down": "SLC9A4", "siRNA no.": 1, "G2 robust z-score": -0.686, "activity call": "inactive"}
{"gene knocked down": "SLC9A4", "siRNA no.": 2, "G2 robust z-score": 2.26, "activity call": "inactive"}
{"gene knocked down": "SLC9A4", "siRNA no.": 3, "G2 robust z-score": -0.848, "activity call": "inactive"}
{"gene knocked down": "S1PR5 (sphingosine-1-phosphate receptor 5)", "siRNA no.": 1, "G2 robust z-score": -0.0299, "activity call": "inactive"}
{"gene knocked down": "S1PR5 (sphingosine-1-phosphate receptor 5)", "siRNA no.": 2, "G2 robust z-score": -0.724, "activity call": "inactive"}
{"gene knocked down": "S1PR5 (sphingosine-1-phosphate receptor 5)", "siRNA no.": 3, "G2 robust z-score": -0.218, "activity call": "inactive"}

The list goes on.
gene knocked down | siRNA no. | G2 robust z-score | activity call
UBAP1 (ubiquitin associated protein 1) | 1 | 0.695 | inactive
UBAP1 (ubiquitin associated protein 1) | 2 | 2.17 | inactive
UBAP1 (ubiquitin associated protein 1) | 3 | 1.95 | inactive
AMT (aminomethyltransferase) | 1 | -0.293 | inactive
AMT (aminomethyltransferase) | 2 | 1.46 | inactive
AMT (aminomethyltransferase) | 3 | 0.0292 | inactive
SPANXA1 | 1 | -0.356 | inactive
SPANXA1 | 2 | 2.56 | inactive
SPANXA1 | 3 | -0.661 | inactive
ZC3H8 (zinc finger CCCH-type containing 8) | 1 | -0.535 | inactive
ZC3H8 (zinc finger CCCH-type containing 8) | 2 | -0.171 | inactive
ZC3H8 (zinc finger CCCH-type containing 8) | 3 | 0.134 | inactive
MPIG6B (megakaryocyte and platelet inhibitory receptor G6b) | 1 | -0.0904 | inactive
MPIG6B (megakaryocyte and platelet inhibitory receptor G6b) | 2 | 0.789 | inactive
MPIG6B (megakaryocyte and platelet inhibitory receptor G6b) | 3 | 0.834 | inactive
FBXO44 (F-box protein 44) | 1 | 1.59 | inactive
FBXO44 (F-box protein 44) | 2 | 0.31 | inactive
FBXO44 (F-box protein 44) | 3 | -0.352 | inactive
PEF1 (penta-EF-hand domain containing 1) | 1 | -0.851 | inactive
PEF1 (penta-EF-hand domain containing 1) | 2 | -0.358 | inactive
PEF1 (penta-EF-hand domain containing 1) | 3 | 2.17 | inactive
INSM2 (INSM transcriptional repressor 2) | 1 | -0.81 | inactive
INSM2 (INSM transcriptional repressor 2) | 2 | 0.386 | inactive
INSM2 (INSM transcriptional repressor 2) | 3 | -0.922 | inactive
CD300LG (CD300 molecule like family member g) | 1 | -0.0558 | inactive
CD300LG (CD300 molecule like family member g) | 2 | 0.989 | inactive
CD300LG (CD300 molecule like family member g) | 3 | -0.169 | inactive
CLK2 (CDC like kinase 2) | 1 | 1.39 | inactive
CLK2 (CDC like kinase 2) | 2 | -1.07 | inactive
CLK2 (CDC like kinase 2) | 3 | -0.184 | inactive
DENND5B (DENN domain containing 5B) | 1 | 7.26 | active
DENND5B (DENN domain containing 5B) | 2 | 2.62 | inactive
DENND5B (DENN domain containing 5B) | 3 | 0.308 | inactive
MS4A13 (membrane spanning 4-domains A13) | 1 | 3.74 | inactive
MS4A13 (membrane spanning 4-domains A13) | 2 | 4.5 | inactive
MS4A13 (membrane spanning 4-domains A13) | 3 | 0.357 | inactive
USP35 (ubiquitin specific peptidase 35) | 1 | 1.94 | inactive
USP35 (ubiquitin specific peptidase 35) | 2 | -1.28 | inactive
USP35 (ubiquitin specific peptidase 35) | 3 | -0.393 | inactive
C11orf96 (chromosome 11 open reading frame 96) | 1 | 0.221 | inactive
C11orf96 (chromosome 11 open reading frame 96) | 2 | -0.68 | inactive
C11orf96 (chromosome 11 open reading frame 96) | 3 | -0.239 | inactive
NOLC1 (nucleolar and coiled-body phosphoprotein 1) | 1 | 0.936 | inactive
NOLC1 (nucleolar and coiled-body phosphoprotein 1) | 2 | 0.194 | inactive
NOLC1 (nucleolar and coiled-body phosphoprotein 1) | 3 | -0.127 | inactive
